Test results from patent US20220177589A1.
These are yes or no findings as the source states them, for the method shown. Some results given as binding are weak or reduced against the parent protein; the word gives no strength.

Target: human BTLA extracellular region with the transmembrane and intracellular regions of murine CD28, wild type, on HEK-293T cells (human; mouse) (UniProt P31041)
Assay: flow cytometry on HEK-293T cells with BTLA constructs

Binder	binding
21C7 (antibody, IgG1, V domains shown) VH: QIQLQQSGPELVKPGASVKISCKASGYAFSSSWMNWVKKRPGKGLEWIGRIYPGDGDANYNGKFKGKATLTADKSSSTAYMQLSSLTSEDSAVYFCAGEGHYYGSGYRWYLDVWGTGTTVTVSS VL: DIQMTQSPASLSVSVGETVTITCRASENIYSNLAWYQQKQGKSPQLLVYAATNLADGVPSRFSGSGSGTQYSLKINSLQSEDFGSYYCQHFRGAPFTFGSGTKLEIK	binds
24H7 (antibody, IgG1, V domains shown) VH: QVQLQQSGAELVRPGASVTLSCKASGYTFTDYEIHWVKQTLVHGLEWIGPIDPDTGNTAYNQNLKGKAILTADKSSSTAYMELRSLTSEDSAVYYCTRGGYDSDWGFAYWGQGTLVTVSA VL: DIVMTQATPSVPVTPGESVSISCRSSKSLLHSNGNTFLFWFLQRPGQSPQLLIYRMSDLASGVPDRFSGSGSGTAFTLRISRVEAEDVGIYYCMQHLEYPFTFGSGTKLEIK	binds
16F10 (antibody, IgG1, V domains shown) VH: DVQLQESGPGLVKPSQSLSLTCSVTGYSITSGYYWNWIRQFPGNKLEWMGYISYDGSNNYNPSLKNRISITRDTSKNQFFLKLNSVTTEDTATYYCASIYGNYYAMDYWGQGTSVTVSS VL: QIVLTQSPAIMSASPGEKVTMTCSASSSVSYMHWYQQKSGTSPKRWIYDTSKLASGVPARFSGSGSGTSYSLTISSMEAEDAATYYCQQWSSNPPTFGSGTKLEIK	binds
7A1 (antibody, IgG1, V domains shown) VH: QVQLQQSGPELVKPGASVKISCKASGYAFSSSWMNWVKQRPGKGLEWIGRIYPGDGDTNYNGKFKGKATLTADKSSSTAYMQLSSLTSEDSAVYFCARRGYGYLAYWGQGTLVTVSA VL: DIVMTQSHKFMSTSVGDRVSITCKASQDVSTAVAWYQQKPGQSPKLLIYSASYRYTGVPDRFTGSGSGTDFTFTISSVQAEDLAVYYCQQHYSTPWTFGGGTKLEIK	binds
15C6 (antibody, IgG1, V domains shown) VH: QVQLQQSGPELVKPGASVKISCKASGYAFSSSWMNWVKQRPGKGLEWIGRIYPGDGDTNYNGKFKGKATLTADKSSSTAYMQLSSLTSEDSAVYFCARRGYGYLAYWGQGTLVTVSA VL: DIVMTQSHKFMSTSVGDRVSITCKASQDVSTAVAWYQQKPGQSPKLLIYSASYRYTGVPDRFTGSGSGTDFTFTISSVQAEDLAVYYCQQHYSTPYTFGGGTKLEIK	binds
6.2 (antibody, IgG1, V domains shown) VH: EVKLVESGGGLVKPGGSLKLSCAASGFTLSSYGMSWVRQIPEKRLEWVASIRSDGNTYYPDSVKGRFIISRDNARNILYLQMSSLRSEDTAMYYCTRGGYYGSSPYYWGQGTTLTVSS VL: DIVMSQSPSSLPVSVGEKISMTCKSSQSLLYSSNQKNYLAWYQQKPGQSPKLLIYWASTRDSGVPDRFIGSGSGTDFTLTINSVKAEDLAVYYCQQYYNYLTFGAGTKLELK	binds
12F11 (antibody, IgG1, V domains shown) VH: EVQLQQSGPELVKPGASVKISCKASGYTFTDYYMNWVKQSHGKSLEWIGDINPNNGGTSYNQKFKGKATLTVDKSSSTAYMELRSLTSEDSAVYYCARWRQLRSDYWGQGTTLTVSS VL: DIQMTQSPASQSASLGESVTITCLASQTIGTWLAWYQQKPGKSPQLLIYAATSLADGVPSRFSGSGSGTKFSFKISSLQAEDFVSYYCQQLYSTPLTFGAGTKLELK	binds
8B4 (antibody, IgG1, V domains shown) VH: QVQLQQSGAELARPGASVKLPCKASGYTFTSYGISWVKQRTGQGLEWIGEIYPRSGTTYYNEKFKGKATLTADKSSSTAYMELRSLTSEDSAVYFCARRISSGSGVDYWGQGTTLTVSS VL: DIQMTQTTSSLSASLGDRVTISCSASQGISNYLNWYQQKPDGTVKLLIYYTSSLHSGVPSRFSGSGSGTDYSLTISNLEPEDIATYYCQQYSELPWTFGGGTKLEIK	binds
4H4 (antibody, IgG1, V domains shown) VH: QVQLQQSGAELARPGASVKLSCKASGYTFTSYGISWVKQRTGQGLEWIGEIYPRSGNTYYNEKFKGKATLTADKSSSTAYMELRSLTSEDSAVYFCARRRGAGDGFDYWGQGTTLTVSS VL: DIQMTQTTSSLSASLGDRVTISCSASQGISNYLNWYQQKPDGTVKLLIYYTSSLHSGVPSRFSGSGSGTDYSLTISNLEPEDIATYYCQQYSKLPFTFGSGTKLEIK	binds

The remaining lines, values ahead:

binding	Binder
binds	4D5 (antibody, IgG1, V domains shown) VH: QIQLVQSGPELKKPGETVKISCKASGYTFTTYGVSWVKQAPGKVLKWMGWINTYSGVPTYADDFKGRFAFSLETSASTAYLQISNLKNEDTATYFCAPVTTILHWYFDVWGTGTTVTVSS VL: DIQMTQSPSSLSASLGERVSLTCRASQEISGYLSWLQQKPDGTIKRLIYAASTLDSGVPKRFRGSRSGSDYSLTISSLESEDFADYYCLQYASYPFTFGSGTKLEIK
binds	4B1 (antibody, IgG1, V domains shown) VH: QVQLQQSGAELARPGASVRLSCKASGYTFTSYGLIWLKQRTGQGLEWIGEIYPRSGSTYYNEWFKGKATLTADKSSNTAFMELRSLTSEDSAVYFCARRRGTGDGFDYWGQGTILTVSS VL: DIQMTQTTSSLSASLGDRVTISCSASQGISNYLNWYQQKPDGTVKLLIYYTSSLHSGVPSRFSGSGSGTDYSLTISNLEPEDIATYYCQQYIELPFTFGSGTKLEIK
binds	3A9 (antibody, IgG1, V domains shown) VH: QVQLKQSGAELVRPGASVKLSCKASGYTFTDYYINWVKQRPGQGLEWIARIYPGSGNTYYNEKFKGKATLTAEKSSSTAYMQLSSLTSEDSAVYFCARGYGNSDYWGQGTTLTVSS VL: DILLTQSPAILSVSPGERVSFSCRASQSIGTRIHWYQQRTNGSPRLLIKYASESISGIPSRFSGSGSGTDFTLSINSVESEDIADYYCQQSNSWPYTFGGGTKLEIK
binds	831 (antibody, V domains shown) VH: DVQLQESGPDLVKPSQSLSVTCTVTGYSITSGYSWHWIRQFPGNKLEWMGYIHYSGSTNYNPSLKSRISITRDTSKNQFFLQLSSVTTEDTATYYCASGPHRYDGVWFAYWGQGTLVTVSS VL: EIVLTQSPTTMAASPGEKITITCSASSSISSNYLHWYQQKPGFSPKLLIYRTSNLASGVPARFSGSGSGTSYSLTIGTMEAEDVATYYCQQGTNIPLTFGAGTKLEIK
